One molecule from publication PMC12672436 (Frontiers in Pharmacology, 2025) can be followed below.

SMILES strings stand for the structures. pIC50: −log10 of the molar value.

Assay [1] concerns the target T1, human OCT3 (Homo sapiens, UniProt O75751).
T1 construct: expressed in transfected cells
T1 sequence (O75751 1-556): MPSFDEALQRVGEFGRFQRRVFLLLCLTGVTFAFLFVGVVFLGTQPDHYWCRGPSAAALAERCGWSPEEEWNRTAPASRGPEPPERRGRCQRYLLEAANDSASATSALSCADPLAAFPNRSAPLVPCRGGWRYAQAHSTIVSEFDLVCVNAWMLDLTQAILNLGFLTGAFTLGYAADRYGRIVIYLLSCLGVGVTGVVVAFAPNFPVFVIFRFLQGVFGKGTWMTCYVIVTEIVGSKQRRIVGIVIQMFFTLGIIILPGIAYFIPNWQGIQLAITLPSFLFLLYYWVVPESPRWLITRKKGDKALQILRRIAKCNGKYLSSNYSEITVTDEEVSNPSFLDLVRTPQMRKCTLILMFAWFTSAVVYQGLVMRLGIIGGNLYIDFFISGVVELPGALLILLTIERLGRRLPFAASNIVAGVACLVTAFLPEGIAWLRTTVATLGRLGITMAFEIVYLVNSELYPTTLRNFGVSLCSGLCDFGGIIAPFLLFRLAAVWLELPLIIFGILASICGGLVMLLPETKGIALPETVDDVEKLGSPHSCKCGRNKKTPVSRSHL
Briefly: Uptake inhibition assay, OCT3. The assay is classed as cell-based. As to conditions: HEK293 cells expressing human OCT3, 0.05 µM [3H]MPP+. The method, then:
Human embryonic kidney (HEK293) cells stably expressing the human isoform (h) of the transporters were grown at 37 °C in a humidified atmosphere of 5% CO2, described in detail in [Mayer et al. (2018)]. Cells were cultured in Dulbecco’s modified Eagle’s medium (DMEM) supplemented with 10% fetal bovine serum and 250 μg/mL geneticin to maintain selection pressure.
HEK293 cells heterologously expressing the respective transporters were seeded onto poly-D-lysine (PDL)-coated 96-well plates at a density of ∼36,000 cells per well, 1 day before experiments. For the experiment, medium was replaced with 200 µL Krebs HEPES buffer (KHB; 120 mM NaCl, 3 mM KCl, 2 mM CaCl2·2H2O, 2 mM MgCl2·6H2O, 20 mM D-glucose, pH 7.3). Test compounds were dissolved in Milli-Q water or dimethyl sulfoxide (DMSO) at 10–100 mM stock concentrations. Cells were preincubated for 5 min with the compound of interest (diluted in KHB to the indicated concentrations). […] Radioactive uptake was quantified by liquid scintillation counting using a Wallac 1450 MicroBeta TriLux counter (PerkinElmer; GMI, Ramsey, MN, United States). […]
FIGURE 3 Inhibition of substrate uptake by local anesthetics at OCT1–3. […] Uptake is expressed as a percentage of control (uptake in the absence of test compound). […]

Assay [2] deals with T2, human OCT1 (Homo sapiens, UniProt O15245).
T2 sequence (O15245 1-554): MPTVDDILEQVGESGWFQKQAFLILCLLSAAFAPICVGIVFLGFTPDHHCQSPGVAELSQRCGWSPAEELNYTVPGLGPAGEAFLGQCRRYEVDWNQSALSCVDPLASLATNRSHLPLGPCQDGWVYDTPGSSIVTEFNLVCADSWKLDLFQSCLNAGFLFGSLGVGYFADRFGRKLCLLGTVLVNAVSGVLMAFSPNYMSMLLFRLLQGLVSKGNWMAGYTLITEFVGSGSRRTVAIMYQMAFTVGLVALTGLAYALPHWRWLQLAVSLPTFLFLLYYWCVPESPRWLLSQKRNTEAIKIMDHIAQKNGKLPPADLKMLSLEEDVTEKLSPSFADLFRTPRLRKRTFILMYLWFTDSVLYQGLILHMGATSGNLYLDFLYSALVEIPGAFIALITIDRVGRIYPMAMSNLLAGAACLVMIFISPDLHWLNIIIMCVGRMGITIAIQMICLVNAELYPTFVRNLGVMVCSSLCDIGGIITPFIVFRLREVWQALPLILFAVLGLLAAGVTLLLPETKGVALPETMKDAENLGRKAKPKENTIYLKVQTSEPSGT
Briefly: cell-based. On the procedure:
(§1) Cells were cultured in Dulbecco’s modified Eagle’s medium (DMEM) supplemented with 10% fetal bovine serum and 250 μg/mL geneticin to maintain selection pressure.
(§2) HEK293 cells heterologously expressing the respective transporters were seeded onto poly-D-lysine (PDL)-coated 96-well plates at a density of ∼36,000 cells per well, 1 day before experiments. For the experiment, medium was replaced with 200 µL Krebs HEPES buffer (KHB; 120 mM NaCl, 3 mM KCl, 2 mM CaCl2·2H2O, 2 mM MgCl2·6H2O, 20 mM D-glucose, pH 7.3). Test compounds were dissolved in Milli-Q water or dimethyl sulfoxide (DMSO) at 10–100 mM stock concentrations. Cells were preincubated for 5 min with the compound of interest (diluted in KHB to the indicated concentrations). The preincubation solution was then replaced with 50 µL/well of diluted compound together with tritiated substrate (DAT, OCT1, OCT2, OCT3: 0.05 μM [^3H]MPP^+; NET: 0.02 μM [^3H]MPP^+; SERT: 0.1 μM [^3H]5-HT) for 1 min (SERT) or 3 min (DAT, NET, OCT1– OCT3). After the incubation, uptake was terminated by rapidly washing cell with 200 μL KHB, followed by addition of 200 μL Ultima Gold™ XR scintillation cocktail (PerkinElmer, MA, United States) to each well. […]
(§3) Uptake is expressed as a percentage of control (uptake in the absence of test compound). […]

For assay [3], the target named is T3, human OCT2 (Homo sapiens, UniProt O15244).
T3 sequence (O15244 1-555): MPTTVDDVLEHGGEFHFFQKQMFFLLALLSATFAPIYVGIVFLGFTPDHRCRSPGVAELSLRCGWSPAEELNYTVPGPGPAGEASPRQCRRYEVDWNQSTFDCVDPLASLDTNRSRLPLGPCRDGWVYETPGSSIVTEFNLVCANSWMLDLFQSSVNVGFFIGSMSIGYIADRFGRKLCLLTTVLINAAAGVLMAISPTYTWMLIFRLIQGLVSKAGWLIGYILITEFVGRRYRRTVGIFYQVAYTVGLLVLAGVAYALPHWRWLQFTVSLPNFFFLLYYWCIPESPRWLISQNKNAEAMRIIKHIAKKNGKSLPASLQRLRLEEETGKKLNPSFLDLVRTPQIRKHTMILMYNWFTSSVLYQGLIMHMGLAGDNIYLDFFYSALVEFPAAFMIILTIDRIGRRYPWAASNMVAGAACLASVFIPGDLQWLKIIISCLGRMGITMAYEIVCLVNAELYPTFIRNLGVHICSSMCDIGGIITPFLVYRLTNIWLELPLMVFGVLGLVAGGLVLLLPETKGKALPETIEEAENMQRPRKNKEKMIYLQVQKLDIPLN
Briefly: cell-based. On the procedure: as §1, §2, §3

A word on the pIC50: it is the IC50 on a negative log10 scale, so that one unit is a factor of ten. Turning to `CCN(CC)CC(=O)Nc1c(C)cccc1C` [lidocaine], the “Inhibition of OCT3-mediated transport (in words)” value in assay [1] is reported as “none of the compounds—cocaine, procaine, or lidocaine—substantially inhibited OCT3-mediated transport except at near-millimolar concentrations”. Also, the pIC50 in assay [2] was 3.60 to 4.10; in assay [3], 4.05 to 4.64.
